According to patent US4612311A, “1,2,4-benzothiadiazine oxide derivatives” (Warner-Lambert Company, priority 1984, dated 1986):
At least one read-out could not be matched to a standard name with certainty.

Test system: benzodiazepine rec.
Assay: GABA-Ratio, benzodiazepine receptor binding

Row | Structure (SMILES) | GABA-Ratio R
1 | O=S1(c2ccccc2)=Nc2ncnn2-c2ccc(Cl)cc21 (racemic) [Example 4a, (±)-7-Chloro-5-phenyl-[1,2,4]triazolo[5,1-c][1,2,4]benzothiadiazine-5-oxide] | 1.4
2 | Cc1nc2n(n1)-c1ccc(Cl)cc1S(=O)(c1ccccc1)=N2 (racemic) [Example 1a, (±)-7-Chloro-2-methyl-5-phenyl-[1,2,4]triazolo[5,1-c][1,2,4]benzothiadizine-5-oxide] | 1.6
3 | Cc1nc2n(n1)-c1ccc(Cl)cc1S(=O)(c1ccccc1Cl)=N2 (racemic) [Example 2c, (±)-7-Chloro-2-methyl-5-(2-chlorophenyl)[1,2,4]triazolo[5,1-c][1,2,4]benzothiadiazine-5-oxide] | 1.1
